Test results taken from the supplement of paper PMC6078165.
Values are relative to the signal before dosing, not to a vehicle control; the signal also falls without drug.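 Labels refer to human fibroblasts, largely primary: uterine (C12385, HUF), lung (H6013), bone (Hs27A), adrenal (HADF), skin (WS1), plus mammary HMF and breast cancer-associated Hs343T. Cancer lines are basal-like or mesenchymal-like triple-negative breast cancer. The paper counts as hits responses shifting over 3x the replicate standard deviation. The tissue of the other fibroblasts is not given here.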

Test system: Hs578T
Experiment: relative JC-1 red fluorescence (viability) vs pre-drug, coculture with fibroblast (fraction); higher = more viable cancer cells
Procedure: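 JC-1 labelled TNBC cells cocultured 1:1 (1,500 cells each) with CellTrace Violet stained primary or stromal fibroblasts in 384-well plates in FluoroBrite medium, treated with one of 42 anticancer drugs at 0.1, 1, 10 or 100 uM. JC-1 red fluorescence (mitochondrial integrity in cancer cells only) was read by plate reader every 8 h for 72 h. Values are normalised to each well's pre-drug value. The stock of one drug was tenfold lower, so its dose labels may be too high.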

CC[C@]1(O)C[C@H]2CN(CCc3c([nH]c4ccccc34)[C@@](C(=O)OC)(c3cc4c(cc3OC)N(C=O)[C@H]3[C@@](O)(C(=O)OC)[C@H](OC(C)=O)[C@]5(CC)C=CCN6CC[C@]43[C@@H]65)C2)C1 [Vincristine]
relative JC-1 red fluorescence
Settings	8 h	16 h	24 h	32 h	40 h	48 h	56 h	64 h	72 h
0.1 µM	0.871	0.767	0.71	0.658	0.569	0.532	0.514	0.488	0.4926
1 µM	0.927	0.856	0.773	0.71	0.62	0.579	0.56	0.531	0.541

relative JC-1 red fluorescence
Settings	8 h	16 h	24 h	32 h	40 h	48 h	56 h	64 h	72 h
0.1 µM, coculture fibroblast: C12385	0.831	0.743	0.716	0.612	0.547	0.515	0.492	0.496	0.506
0.1 µM, coculture fibroblast: H6013	0.83347	0.789	0.7605	0.72	0.689	0.702	0.705	0.728	0.723
0.1 µM, coculture fibroblast: H6019	0.8006	0.713	0.7129	0.6324	0.607	0.598	0.59	0.597	0.597
0.1 µM, coculture fibroblast: H6076	0.914	0.8501	0.82	0.786	0.715	0.721	0.706	0.717	0.739
0.1 µM, coculture fibroblast: H6231	0.862	0.762	0.6771	0.6075	0.5259	0.5006	0.469	0.468	0.475
0.1 µM, coculture fibroblast: HADF	0.8606	0.8	0.743	0.7045	0.698	0.69887	0.6928	0.7088	0.717
0.1 µM, coculture fibroblast: HCFa	0.846	0.795	0.744	0.683	0.623	0.614	0.597	0.595	0.574
0.1 µM, coculture fibroblast: HCPF	0.916	0.824	0.755	0.702	0.605	0.573	0.538	0.509	0.49
0.1 µM, coculture fibroblast: HHSteC	0.8542	0.825	0.8	0.766	0.722	0.696	0.687	0.681	0.663
0.1 µM, coculture fibroblast: HMF	0.8612	0.746	0.689	0.647	0.551	0.525	0.502	0.497	0.501
0.1 µM, coculture fibroblast: HPFa	0.8606	0.8259	0.768	0.706	0.665	0.639	0.605	0.596	0.571
0.1 µM, coculture fibroblast: HUF	0.813	0.708	0.682	0.565	0.506	0.479	0.456	0.462	0.466
0.1 µM, coculture fibroblast: Hs27A	0.8737	0.85251	0.8106	0.762	0.709	0.72	0.702	0.713	0.699
0.1 µM, coculture fibroblast: Hs343T	0.864	0.745	0.688	0.65	0.564	0.544	0.517	0.513	0.53
0.1 µM, coculture fibroblast: WS1	0.799	0.683	0.66	0.56	0.504	0.491	0.457	0.475	0.481
1 µM, coculture fibroblast: C12385	0.842	0.7321	0.661	0.565	0.483	0.452	0.43	0.43	0.434
1 µM, coculture fibroblast: H6013	0.937	0.8881	0.826	0.803	0.761	0.75	0.739	0.739	0.719
1 µM, coculture fibroblast: H6019	0.824	0.745	0.699	0.616	0.567	0.549	0.5264	0.517	0.509
1 µM, coculture fibroblast: H6076	0.9242	0.8515	0.7722	0.734	0.664	0.642	0.625	0.626	0.629
1 µM, coculture fibroblast: H6231	0.912	0.818	0.729	0.696	0.613	0.569	0.521	0.499	0.4935
1 µM, coculture fibroblast: HADF	0.912	0.8607	0.7816	0.693	0.635	0.59	0.55	0.524	0.498
1 µM, coculture fibroblast: HCFa	0.889	0.826	0.7377	0.674	0.606	0.595	0.562	0.552	0.524
1 µM, coculture fibroblast: HCPF	0.939	0.85	0.785	0.749	0.661	0.616	0.576	0.535	0.52747
1 µM, coculture fibroblast: HHSteC	0.927	0.887	0.776	0.685	0.616	0.583	0.545	0.521	0.481
1 µM, coculture fibroblast: HMF	0.9134	0.836	0.763	0.735	0.645	0.61	0.555	0.548	0.545
1 µM, coculture fibroblast: HPFa	0.927	0.885	0.764	0.677	0.594	0.548	0.501	0.482	0.446
1 µM, coculture fibroblast: HUF	0.87	0.773	0.696	0.586	0.509	0.468	0.423	0.418	0.412
1 µM, coculture fibroblast: Hs27A	0.8943	0.853	0.798	0.72	0.65	0.637	0.609	0.603	0.567
1 µM, coculture fibroblast: Hs343T	0.895	0.793	0.7054	0.7009	0.629	0.598	0.562	0.553	0.562
1 µM, coculture fibroblast: WS1	0.836	0.726	0.651	0.549	0.484	0.4453	0.411	0.407	0.411
